Results from publication PMC11977240.

The chains behind the UniProt entries cited, without tags or fusion partners.
UniProt Q00839: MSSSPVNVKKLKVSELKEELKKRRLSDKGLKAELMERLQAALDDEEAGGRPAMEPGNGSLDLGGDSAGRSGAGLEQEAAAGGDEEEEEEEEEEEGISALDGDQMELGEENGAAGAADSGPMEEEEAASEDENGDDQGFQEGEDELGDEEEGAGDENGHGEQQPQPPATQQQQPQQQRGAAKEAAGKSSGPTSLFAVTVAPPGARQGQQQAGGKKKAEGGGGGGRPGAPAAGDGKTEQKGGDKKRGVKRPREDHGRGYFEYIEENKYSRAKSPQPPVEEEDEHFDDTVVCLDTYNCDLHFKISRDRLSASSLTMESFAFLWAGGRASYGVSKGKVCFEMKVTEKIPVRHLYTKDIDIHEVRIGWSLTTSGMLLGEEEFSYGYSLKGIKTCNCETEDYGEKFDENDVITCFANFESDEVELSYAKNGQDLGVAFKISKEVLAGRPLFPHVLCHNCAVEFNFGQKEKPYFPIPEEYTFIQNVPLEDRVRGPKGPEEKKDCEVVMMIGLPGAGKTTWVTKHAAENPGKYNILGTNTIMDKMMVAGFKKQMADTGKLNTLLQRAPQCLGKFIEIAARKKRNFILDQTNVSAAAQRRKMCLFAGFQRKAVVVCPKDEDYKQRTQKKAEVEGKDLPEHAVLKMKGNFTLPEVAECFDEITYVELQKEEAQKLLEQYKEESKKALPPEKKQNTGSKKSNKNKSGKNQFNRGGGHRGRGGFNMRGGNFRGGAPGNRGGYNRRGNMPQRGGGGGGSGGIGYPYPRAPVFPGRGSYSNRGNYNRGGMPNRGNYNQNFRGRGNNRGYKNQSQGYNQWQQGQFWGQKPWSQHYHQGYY
UniProt O00571: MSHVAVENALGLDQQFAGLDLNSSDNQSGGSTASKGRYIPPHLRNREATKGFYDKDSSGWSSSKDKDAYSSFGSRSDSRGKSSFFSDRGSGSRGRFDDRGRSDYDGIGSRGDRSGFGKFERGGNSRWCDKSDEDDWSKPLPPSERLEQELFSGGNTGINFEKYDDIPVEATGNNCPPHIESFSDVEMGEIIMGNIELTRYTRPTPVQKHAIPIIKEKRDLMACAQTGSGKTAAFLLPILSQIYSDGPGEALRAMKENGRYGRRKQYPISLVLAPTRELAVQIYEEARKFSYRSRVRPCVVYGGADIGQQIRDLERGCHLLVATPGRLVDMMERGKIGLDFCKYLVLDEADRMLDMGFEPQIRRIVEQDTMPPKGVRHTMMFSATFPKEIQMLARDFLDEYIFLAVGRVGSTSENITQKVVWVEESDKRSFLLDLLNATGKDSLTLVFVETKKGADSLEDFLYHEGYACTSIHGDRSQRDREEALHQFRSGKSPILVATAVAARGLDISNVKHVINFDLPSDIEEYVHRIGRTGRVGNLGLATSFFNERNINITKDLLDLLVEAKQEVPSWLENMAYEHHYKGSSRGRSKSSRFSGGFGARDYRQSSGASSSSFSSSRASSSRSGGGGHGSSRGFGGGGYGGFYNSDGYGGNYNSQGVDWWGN

What was measured:
[1] = biological target: hnRNP U (human (endogenous in HCT116)) (UniProt Q00839); test: affinity purification with mass spectrometry; IP with hnRNP U antibody (Santa Cruz sc-32315) on protein-sepharose beads from 600 µg HCT116 cytoplasmic extract digested with benzonase, overnight at 4 °C; IgG control; label-free HCD-MS/MS, SAINT score SP ≥ 0.8, four replicates
[2] = biological target: hnRNP U (human (endogenous in HCT116)) (UniProt Q00839); test: as above; remark: listed apart in the source

Molecule | binding [1] | binding [2]
DDX3X (from UniProt O00571 1-662) | binds | 
GRSF1 (protein, UniProt Q12849 118-480) SQESKTTYLEDLPPPPEYELAPSKLEEEVDDVFLIRAQGLPWSCTMEDVLNFFSDCRIRNGENGIHFLLNRDGKRRGDALIEMESEQDVQKALEKHRMYMGQRYVEVYEINNEDVDALMKSLQVKSSPVVNDGVVRLRGLPYSCNEKDIVDFFAGLNIVDITFVMDYRGRRKTGEAYVQFEEPEMANQALLKHREEIGNRYIEIFPSRRNEVRTHVGSYKGKKIASFPTAKYITEPEMVFEEHEVNEDIQPMTAFESEKEIELPKEVPEKLPEAADFGTTSSLHFVHMRGLPFQANAQDIINFFAPLKPVRITMEYSSSGKATGEADVHFETHEDAVAAMLKDRSHVHHRYIELFLNSCPKGK |  | no binding

Where two headings read alike, the source gives them in different places. No constants are given. Whether binding was seen depends on the method and setting. Binding seen in cells or lysates may run through a third protein. These calls come from enrichment with a bait or labelling near it, and not all partners need be listed. For some assays here: A no says only that the protein was not detected with the bait.
